Experimental data from PubChem BioAssay AID330 (DTP/NCI, 2004).
The list does not hold the whole screen: it gathers tests that were run many times, whatever their T/C, doses with no T/C, and many T/C values between a quarter and a half above the control. Other doses and runs of a compound stand elsewhere. T/C gives the treated animals as a percentage of the vehicle group. Some entries give survivors of the animals treated and no T/C: the source holds a T/C of zero for them, seemingly a mark for toxic or unscored doses. Some doses without a T/C left all or most animals alive at the check, yet need not have been tolerated: survival well below the control is almost never listed, so the zero probably covers shortened survival too. Survivors were counted at the toxicity check, usually on the fifth day, unless a day is given; later deaths do not show. Schedule codes are those of the source, taken here to give the interval after Q, in days (D) or hours (H), and the number of doses after X. Some entries hold several experiments; the results are listed from low to high. Where survival is the endpoint, the PubChem record calls one and a half times the control and up active, and a quarter to a half above the control has no call in these data; cut-offs in other NCI protocols can differ. Some T/C values are followed by the survivors on the day toxicity was checked, most often the fifth; without a count, all were alive then.

Test system: P388 leukemia ip, CD2F1 mice, survival T/C
Experiment: NCI In Vivo Anticancer Drug Screen. Data for tumor model P388 Leukemia (intraperitoneal) in CD2F1 (CDF1) mice
Conditions: T/C endpoint: median survival time, higher T/C = longer survival
[1] = dose: 200.0 mg/kg/injection, schedule: Q01DX009 (ip), vehicle: saline
[2] = dose: 50.0 mg/kg/injection, schedule: Q01DX009 (ip), vehicle: saline
[3] = dose: 100.0 mg/kg/injection, schedule: Q01DX009 (ip), vehicle: saline
[4] = dose: 400.0 mg/kg/injection, schedule: Q04DX003 (ip), vehicle: saline
[5] = dose: 100.0 mg/kg/injection, schedule: Q01DX005 (ip), vehicle: saline
[6] = dose: 200.0 mg/kg/injection, schedule: Q01DX005 (ip), vehicle: saline
[7] = dose: 400.0 mg/kg/injection, schedule: Q04DX003 (ip), vehicle: saline with Tween-80
[8] = dose: 0.15 mg/kg/injection, schedule: Q01DX009 (ip), vehicle: Klucel (hydroxypropylcellulose) (HPC)

COc1cc2c(cc1OC)-c1c3c(cc4c1[C@H](C2)N(C)CC4)OCO3
survivor count (dose: 100.0 mg/kg/injection, schedule: Q04DX003 (ip), vehicle: saline with Tween-80): 3 of 6

COc1ccc(OC)c(N=Cc2ccc(C=Nc3cc(OC)ccc3OC)cc2)c1
survivor count [1]: 6 of 6

C[N+]1(Cc2csc(-c3ccc(Cl)cc3)n2)CCOCC1
survivor count (dose: 100.0 mg/kg/injection, schedule: Q01DX009 (ip), vehicle: Klucel (hydroxypropylcellulose) (HPC)): 1 of 6 and 5 of 6

CC(CNC(=O)CCBr)NC(=O)CCBr (configuration not stated)
survivor count [2]: 3 of 6 | T/C (dose: 50.0 mg/kg/injection, schedule: Q01DX009 (ip), vehicle: suspension in saline): 125 % of control | T/C [3]: 149 % of control [5 of 6 alive] | T/C (dose: 100.0 mg/kg/injection, schedule: Q01DX009 (ip), vehicle: suspension in saline): 140 % of control | survivor count (dose: 200.0 mg/kg/injection, schedule: Q01DX009 (ip), vehicle: suspension in saline): 3 of 6

Cc1ccc2c(c1)C(=O)C(CN1CCCCC1)CO2 (configuration not stated)
survivor count [4]: 0 of 6

Cc1cccc(O)c1O
survivor count [3]: 3 of 6 | survivor count (dose: 400.0 mg/kg/injection, schedule: Q01DX009 (ip), vehicle: saline): 0 of 6 | survivor count (dose: 600.0 mg/kg/injection, schedule: Q01DX009 (ip), vehicle: saline): 0 of 6

CCC[N+]1(CC)CCCCC1
survivor count [2]: 2 of 6 | survivor count [3]: 0 of 6 | survivor count [1]: 0 of 6

CCN(CC)CCSCCNc1cc(OC)cc2cccnc12
survivor count [5]: 0 of 5 | survivor count [6]: 0 of 5

CCOC(=O)C1=C(C(C)=O)C(c2ccc(OC)c(OC)c2)C(C(C)=O)=C(C(=O)OCC)N1
survivor count (dose: 240.0 mg/kg/injection, schedule: Q01DX005 (ip), vehicle: saline): 0 of 6

C=C1C(=O)OC2CC1CCC1(C)OC1CCC(C)=CCCC2(C)O (configuration not stated)
survivor count (dose: 60.0 mg/kg/injection, schedule: Q01DX009 (ip), vehicle: Klucel (hydroxypropylcellulose) (HPC)): 6 of 6

Cc1ccc(SSc2nnnn2C)cc1
survivor count (dose: 200.0 mg/kg/injection, schedule: Q01DX009 (ip), vehicle: Klucel (hydroxypropylcellulose) (HPC)): 2 of 6

[Cl][Co][Cl].[NH-]CC[N-]CC[N-]CC[NH-]
survivor count [5]: 4 of 6 | survivor count [6]: 0 of 6 and 2 of 6 | survivor count [1]: 1 of 6

C/C(=C/c1cc2c(cc1Br)OCO2)[N+](=O)[O-]
survivor count [7]: 0 of 6

CCSc1ncnc2c1ncn2C1OC(CO)C(O)C1O (configuration not stated)
survivor count [7]: 3 of 6

Cc1c2oc3c(C)c([N+](=O)[O-])cc(C(=O)NC4C(=O)NC(C(C)C)C(=O)N5CCCC5C(=O)N(C)CC(=O)N(C)C(C(C)C)C(=O)OC4C)c3nc-2c(C(=O)NC2C(=O)NC(C(C)C)C(=O)N3CCCC3C(=O)N(C)CC(=O)N(C)C(C(C)C)C(=O)OC2C)c(N)c1=O (configuration not stated)
T/C (dose: 0.04 mg/kg/injection, schedule: Q01DX009 (ip), vehicle: Klucel (hydroxypropylcellulose) (HPC)): 140 % of control | T/C [8]: 130 % of control | survivor count [8]: 6 of 6 | survivor count (dose: 0.3 mg/kg/injection, schedule: Q01DX009 (ip), vehicle: Klucel (hydroxypropylcellulose) (HPC)): 5 of 6 | survivor count (dose: 0.6 mg/kg/injection, schedule: Q01DX009 (ip), vehicle: Klucel (hydroxypropylcellulose) (HPC)): 1 of 6

CCCCOCN(CCCc1ccccc1)COCCCC
T/C (dose: 100.0 mg/kg/injection, schedule: Q01DX009 (ip), vehicle: saline with Tween-80): 127 % of control | T/C (dose: 200.0 mg/kg/injection, schedule: Q01DX009 (ip), vehicle: saline with Tween-80): 139 % of control

CSc1cccc([N+](=O)[O-])c1
survivor count [2]: 6 of 6

C[n+]1cccc2ccccc21
survivor count (dose: 200.0 mg/kg/injection, schedule: Q04DX003 (ip), vehicle: saline): 0 of 6 | survivor count [4]: 0 of 6

CCNc1snc2c1c(=O)[nH]c(=O)n2Cc1ccccc1
survivor count [3]: 6 of 6 | survivor count [1]: 6 of 6
